Laboratory results taken from publication PMC4256266.
No constants are given. Whether binding was seen depends on the method and setting. Binding seen in cells or lysates may run through a third protein. Binding calls can cover weak binding; strength is not graded here.

Chains of the proteins cited; added tags and fusions are not shown. Lines headed by an entry give the natural chain unless they say otherwise; changes in a name come on top.
UniProt Q03267: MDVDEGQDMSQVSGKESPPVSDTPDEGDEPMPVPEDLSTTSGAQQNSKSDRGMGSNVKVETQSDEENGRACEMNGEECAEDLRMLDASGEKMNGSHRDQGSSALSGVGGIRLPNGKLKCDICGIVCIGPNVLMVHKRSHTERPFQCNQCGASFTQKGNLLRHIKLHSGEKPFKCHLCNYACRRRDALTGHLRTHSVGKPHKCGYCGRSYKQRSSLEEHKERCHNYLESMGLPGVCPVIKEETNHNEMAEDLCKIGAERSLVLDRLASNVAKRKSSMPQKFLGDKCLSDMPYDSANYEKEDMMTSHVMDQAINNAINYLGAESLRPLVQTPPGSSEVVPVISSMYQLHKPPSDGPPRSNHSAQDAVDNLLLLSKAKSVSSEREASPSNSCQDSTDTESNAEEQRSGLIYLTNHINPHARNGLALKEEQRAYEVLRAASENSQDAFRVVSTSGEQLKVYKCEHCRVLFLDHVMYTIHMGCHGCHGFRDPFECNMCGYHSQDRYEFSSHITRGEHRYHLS

Target: Flag-HA-tagged murine Ikaros1ΔPP1 (FH-Ik1ΔPP1), in 293T (mouse) (UniProt Q03267)
Experiment: co-IP; total cell lysates of 293T cells transiently transfected with FH-Ik1, FH-Ik1ΔPP1 or empty vector; IP with FLAG antibodies, blots for IKAROS, Mi2, CDK9, CYCLIN T1, MTA2

binding: binds
Substance: CDK9 (endogenous, 293T) (from UniProt P50750 1-372) (enzyme)
